# According to PubChem BioAssay AID588590 (National Center for Advancing Translational Sciences (NCATS), 2011):
# Amino acid sequences for entries named in this document (tags omitted). A change or cut given only in a name is not applied to a line headed by its entry.
# UniProt Q9UNA4: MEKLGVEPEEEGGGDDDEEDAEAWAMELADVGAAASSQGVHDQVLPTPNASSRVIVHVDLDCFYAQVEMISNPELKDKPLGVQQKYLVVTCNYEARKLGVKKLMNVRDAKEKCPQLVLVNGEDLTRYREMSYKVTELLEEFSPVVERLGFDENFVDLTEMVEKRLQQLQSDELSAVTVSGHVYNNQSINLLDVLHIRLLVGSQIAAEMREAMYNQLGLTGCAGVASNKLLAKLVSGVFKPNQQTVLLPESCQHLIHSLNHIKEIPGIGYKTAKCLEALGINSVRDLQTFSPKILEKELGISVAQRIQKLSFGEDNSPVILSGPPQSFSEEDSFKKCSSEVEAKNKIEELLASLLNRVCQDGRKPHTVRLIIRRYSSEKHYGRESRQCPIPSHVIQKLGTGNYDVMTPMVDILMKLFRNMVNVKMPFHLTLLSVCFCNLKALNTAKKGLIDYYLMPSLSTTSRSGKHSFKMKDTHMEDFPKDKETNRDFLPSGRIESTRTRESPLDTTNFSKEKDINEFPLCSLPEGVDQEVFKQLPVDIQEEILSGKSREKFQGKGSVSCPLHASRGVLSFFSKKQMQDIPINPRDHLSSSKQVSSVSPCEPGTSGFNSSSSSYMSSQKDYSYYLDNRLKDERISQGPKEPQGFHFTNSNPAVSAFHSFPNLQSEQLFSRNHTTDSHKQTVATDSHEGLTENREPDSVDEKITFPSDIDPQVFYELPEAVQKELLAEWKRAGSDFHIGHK
# Several values for one entry are separate records, joined by “and”; a condition that tells them apart may be missing. Identical values can stand only once. The campaign covered roughly 390,000 compounds. About 4,000 (1%) were called active. Inconclusive means that the source gave no clear call. Such entries were picked first, then a sample of the others. The call rests on the fitted dose curve; in most records, active means well fitted inhibition curve with a large enough effect; inconclusive means small, poorly fitted or top-dose-only effect, or another doubt; inactive means no such curve, though single readings can be large or run the other way. A potency beside an inconclusive call is a rough fit, not a confirmed value.
# Molecular target: DNA polymerase iota (Homo sapiens) (UniProt Q9UNA4)
# Assay: qHTS for Inhibitors of Polymerase Iota
# Conditions: Pol iota fluorescent replication assay, 10 min; series mostly up to 115 µM; activity, negative = inhibition: at the top concentration
# In short: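 Pol iota at 10 nM preincubated 15 min with compounds at room temperature; reaction started with fluorescent substrate, 50 nM final. Fluorescence read kinetically at 0 and 10 min; buffer-only wells as negative control.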
# Potency means the concentration at half of the fitted maximal effect.
SMILES,Potency,"activity, negative = inhibition"
COc1ccc(NC(=O)Nc2cc(-c3cn4cccnc4n3)ccc2OC)cc1,"inconclusive: 1.26 µM [inhibitor, full curve, poor fit]",–
COC(=O)c1sccc1N(C)S(C)(=O)=O,"inconclusive: 89.1 µM [inhibitor, single point]",–
CC(C)[C@H](NC(N)=O)C(=O)NCCc1ccc(Cl)cc1,"inconclusive: 10 µM [inhibitor, partial curve, poor fit]",–
Cc1ccc(CN2c3ccccc3-c3nc(SCC(=O)Nc4c(C)cc(C)cc4C)ncc3S2(=O)=O)cc1,–,inactive: 25.8%
O=C(CSc1nc2ccccc2[nH]1)c1ccc(Cl)s1,"inconclusive: 39.8 µM [inhibitor, partial curve, poor fit]",–
CCN1C(=O)[C@H]2[C@H]3CN=C(SCC4CC4)N3[C@@](Cc3ccccc3)(C(=O)OC)[C@H]2C1=O,"inconclusive: 0.631 µM [inhibitor, partial curve, poor fit]",–
COc1ccc(-c2ccc(CCC(=O)O)n2-c2ccc(O)cc2)cc1,"inconclusive: 35.5 µM [inhibitor, full curve]",–
Cc1nn2c(=O)cc(COc3ccc(/C=C(\C#N)C(=O)Nc4ccccc4)cc3Cl)nc2s1,"inconclusive: 89.1 µM [inhibitor, single point]",–
Cc1cccc(Nc2ncnc3ccc(Br)cc23)c1,–,inactive: -14.5%
COc1cc([C@@H]2Oc3cc(C4Oc5cc(O)cc(O)c5C(=O)[C@H]4O)ccc3O[C@H]2CO)ccc1O (stereo partly drawn),"inconclusive: 44.7 µM [inhibitor, partial curve, poor fit]",–
Brc1cccc[n+]1CCC[n+]1ccccc1Br,"inconclusive: 11.2 µM [inhibitor, partial curve, poor fit]",–
O=C(Nc1ccccc1N1CCCC1)c1ccc([N+](=O)[O-])o1,"inconclusive: 56.2 µM [inhibitor, partial curve, poor fit]",–
CN1C/C(=C/c2cccnc2)C(=O)/C(=C/c2cccnc2)C1,"inconclusive: 35.5 µM [inhibitor, partial curve, poor fit]",–
O=C(CCCn1c(SCC(=O)c2ccc(O)c(O)c2)nc2ccccc2c1=O)NCC1CCCO1 (stereo not drawn),active: 14.1 µM,–
O=C(NC1CCCCC1)c1n[nH]c2c1CC(c1ccccc1)CC2 (stereo not drawn),"inconclusive: 25.1 µM [inhibitor, single point]",–
Cc1cccc(C)c1OCCCn1ccnc1,"inconclusive: 0.891 µM [inhibitor, full curve, poor fit]",–
Ic1ccc(N2CCN(Cc3c[nH]c4ncccc34)CC2)cc1,"inconclusive: 50.1 µM [inhibitor, partial curve, poor fit] and inconclusive: 39.8 µM [inhibitor, single point] and inconclusive: 20 µM [inhibitor, full curve]",–
Cc1cccc(-n2cc(-c3ccccc3)c3c(NC(C)C)ncnc32)c1,–,inactive: -10.8%
C=CCOc1c(Br)cc(/C=C2/C(=O)ON=C2C)cc1OC,active: 89.1 µM,–
O=C(O)CCCN1C(=O)/C(=C\c2ccccc2OCc2ccccc2)SC1=S,"inconclusive: 31.6 µM [inhibitor, single point]",–
CCCCNC(=O)c1nn2cc(Br)cnc2c1Br,"inconclusive: 10 µM [inhibitor, partial curve]",–

SMILES,Potency,"activity, negative = inhibition"
O=[N+]([O-])c1cc(S(=O)(=O)O)cc([N+](=O)[O-])c1NN(c1ccccc1)c1ccccc1,"inconclusive: 39.8 µM [inhibitor, partial curve]",–
CC1=NN(c2ccc(Cl)cc2)C(=O)C1C(c1cccc(O)c1)c1c(C)[nH]n(-c2ccc(Cl)cc2)c1=O (stereo not drawn),–,inactive: 6.79%
CS(=O)(=O)N(CC(=O)Nc1ccccc1Sc1ccccc1)c1cccc(Br)c1,"inconclusive: 8.91 µM [inhibitor, partial curve, poor fit]",–
CN(C)c1ccc(-c2ccc3c(=O)c4ccccc4n(C)c3c2)cn1,"inconclusive: 14.1 µM [inhibitor, partial curve, poor fit]",–
COc1ccccc1-c1c(C)nn2c(-c3ccccc3)cc(C)nc12,"inconclusive: 89.1 µM [inhibitor, single point]",–
COc1ccccc1-c1sc2ccccc2c1-c1ccc2c(c1)OCO2,"inconclusive: 28.2 µM [inhibitor, partial curve, poor fit]",–
CCC(=O)Nc1nonc1-c1nc2ccccc2n1Cc1ccc(Cl)c(Cl)c1,"inconclusive: 50.1 µM [inhibitor, partial curve, poor fit]",–
Cc1ccc2c(C)nc(Nc3nc(CSc4nnc(C)s4)cc(=O)[nH]3)nc2c1,–,inactive: 37.6%
Cc1cc(NC(=O)CON=C(N)CC(=O)Nc2ccccc2Cl)ccc1Br,"inconclusive: 25.1 µM [inhibitor, partial curve, poor fit]",–
CN1CCN(CC(O)COCCOc2ccc(Br)cc2)CC1 (stereo not drawn),"inconclusive: 89.1 µM [inhibitor, partial curve, poor fit]",–
Cc1ccc(C(=O)c2coc3cc([N+](=O)[O-])c(O)c([N+](=O)[O-])c23)cc1,"inconclusive: 20 µM [inhibitor, full curve, poor fit]",–
COc1ccc(C(=O)CSc2nnc(C3CCCCC3)n2N)c(OC)c1,"inconclusive: 50.1 µM [inhibitor, partial curve]",–
CCC(=O)Nc1cccc(C(=O)/C=C/c2ccc(F)cc2)c1,"inconclusive: 8.91 µM [inhibitor, full curve, poor fit]",–
COC(=O)c1ccc(S(=O)(=O)N2CCCCCC2)cc1,–,inactive: 25.7%
O=C(COc1ccc2ccccc2c1)NNC(=O)c1ccc([N+](=O)[O-])cc1,"inconclusive: 44.7 µM [inhibitor, partial curve, poor fit]",–
CCC1CC=CC2C1C(=O)N(Cc1ccccc1)C2c1ccoc1 (stereo not drawn),"inconclusive: 22.4 µM [inhibitor, full curve]",–
COC(=O)c1ccc(C2C(C(C)=O)=C(O)C(=O)N2CCO)cc1 (stereo not drawn),"inconclusive: 1 µM [inhibitor, full curve, poor fit]",–
COc1ccc(OC)c(/C=C/C(=O)c2ccc(Cl)cc2)c1,"inconclusive: 8.91 µM [inhibitor, partial curve, poor fit]",–
CC(=O)c1sc2nc(-c3ccco3)ccc2c1N,active: 5.01 µM,–
Cc1cc(=O)[nH]c2nnc(SCc3ccc(Cl)c(Cl)c3)n12,–,inactive: 13.8%
O=c1nc(SCc2ccccc2Cl)nc(-c2ccc(Cl)cc2)[nH]1,–,inactive: 58.1%

SMILES,Potency,"activity, negative = inhibition"
CC1(C)Cc2c(C#N)c(NCCc3ccccc3)nc(-c3ccco3)c2CO1,active: 79.4 µM,–
CCOc1ccccc1NC(=O)Cc1coc2c(C)c(C)ccc12,–,inactive: -12.4%
COC(=O)[C@H](Cc1ccccc1)NC(=O)NCC1CCCO1 (stereo partly drawn),–,inactive: 18.2%
Cc1cccc(C(=O)N2CCc3cc(CNC(=O)c4ccnn4C)ccc32)c1,–,inactive: -24.7%
COc1ccccc1-c1nnc2sc(-c3cnccn3)nn12,"inconclusive: 0.631 µM [inhibitor, full curve, poor fit]",–
CCOC(=O)C1CCN(c2c(C(=O)c3ccc(OCC)cc3)cnc3ccc(OC)cc23)CC1,"inconclusive: 39.8 µM [inhibitor, single point]",–
Cc1cccc(NC(=O)c2oc3c(c2C)-c2[nH]ncc2CC3)c1C,–,inactive: -2.48%
CCC(NC(=O)c1ccccc1NC(=O)c1ccco1)C(=O)NNC(=O)c1ccc(OC)cc1 (stereo not drawn),"inconclusive: 12.6 µM [inhibitor, partial curve, poor fit]",–
Cc1c(Cl)cccc1NC(=O)CC(c1cccs1)N1Cc2ccccc2C1=O (stereo not drawn),"inconclusive: 89.1 µM [inhibitor, partial curve, poor fit]",–
Cc1nc2c(C(=O)NCc3ccccc3Cl)c[nH]n2c(=O)c1Cc1cccc(Cl)c1,active: 56.2 µM,–
N#C/C(=C/c1ccc(-c2cccc([N+](=O)[O-])c2)o1)C(=O)Nc1nc(-c2cccs2)cs1,"inconclusive: 31.6 µM [inhibitor, full curve, poor fit]",–
COc1ccc(-c2ccc3c(=O)cc(-c4ccsc4)oc3c2)cn1,active: 22.4 µM,–
NC(=O)c1ccsc1NC(=O)COC(=O)c1ccc(Cl)c(N)c1,"inconclusive: 35.5 µM [inhibitor, partial curve, poor fit]",–
O=C(Cc1ccc([N+](=O)[O-])cc1)N/N=C/c1ccco1,–,inactive: 111%
CCOc1ccccc1NC(=O)c1c(NC(=O)CCC(=O)O)sc2c1CCCCC2,"inconclusive: 89.1 µM [inhibitor, single point]",–
N=C1C2=C3Sc4ccccc4N3CCCC2=NN1c1cccc(S(=O)(=O)O)c1,"inconclusive: 17.8 µM [inhibitor, partial curve, poor fit]",–
CN(CC(=O)Nc1cccc(Cl)c1)S(=O)(=O)c1ccc2[nH]c3c(c2c1)CCCC3,"inconclusive: 79.4 µM [inhibitor, single point]",–
NC(=O)c1ccc(NC(=O)CSC2=Nc3ccccc3C3CC=NN23)cc1 (stereo not drawn),"inconclusive: 22.4 µM [inhibitor, partial curve, poor fit]",–
S=c1[nH]nc(-c2ccc(Br)cc2)n1-c1ccc(Br)cc1,"inconclusive: 25.1 µM [inhibitor, single point]",–
CC(=O)N1c2ccc(S(=O)(=O)N3CCCC(C(=O)Nc4cccc(F)c4)C3)cc2CC1C (stereo not drawn),"inconclusive: 11.2 µM [inhibitor, full curve, poor fit]",–
CC(C)(C)n1nnnc1C(c1ccncc1)N(Cc1ccccc1)Cc1ccco1 (stereo not drawn),"inconclusive: 31.6 µM [inhibitor, partial curve, poor fit]",–
